Measurements from PubChem BioAssay AID590 (National Center for Advancing Translational Sciences (NCATS), 2007).
Among all 59,000 compounds or so, about 6,500 (11%) were called active. The inconclusive results got no clear call from the source; some entries with a clear call stand among them for comparison. No stated cut-off is given here; in the data, active means max dye-equivalent concentration above about 10 nM; inconclusive means mostly about 1.1 nM to 9.6 nM; inactive means weaker than that.

Assay: qHTS Assay for Spectroscopic Profiling in A350 Spectral Region
Conditions: Compound autofluorescence, 340/450 nm, Alexa 350 dye-equivalents; active compounds read high
From the text: NIH Molecular Libraries Screening Centers Network [MLSCN]
NIH Chemical Genomics Center [NCGC]
Occasionally, the artifactual effect may originate from the compounds own spectral or other biophysical properties which generally tend to track its assay concentration. Pre-screening/profiling the library with respect to the compounds spectral properties should help one exclude false positives early on. While the most informative fluorescent profiling data set is obtained by performing a full excitation and emission scan of each well by using a monochromator-based plate reader, such an approach is practical only on a very limited scale as scanning each well requires long time. An alternative approach, applied here, is to perform plate reader scans using selected excitation and emission wavelength pairs to generate a multidimensional relational database that correlates compound concentration and the respective relative fluorescence intensity at a given wavelength set. A standard curve of Alexa 350 (A 350) present on each plate as six-point concentration series, was used to compute a normalized fluorescence response, termed dye-equivalent concentration, for each compound at each concentration.
NCGC Assay Protocol Summary:
100 mM Tris buffer, pH 8.0
The wells in columns 1 through 4 of a Kalypsys polypropylene 1536-well compound plate were filled with standard solutions of fluorophore corresponding to the spectral region of interest. Solutions of A 350 were placed in the following wells: I1, J1: 3 mM, I2, J2: 300 uM, I3, J3: 30 uM, I4, J4: zero (DMSO), K1, L1: 3 uM, K2, L2: […], K3, L3: 300 nM, K4, L4: zero (DMSO).
Six uL of buffer were dispensed to 1536-well Greiner black plates. Compounds and dye standards (23 nL) were transferred via Kalypsys PinTool. The plates were incubated for 15 min at room temperature, and then read on ViewLux (Perkin-Elmer) High-throughput CCD imager using 340 nm and 450 nm excitation and emission filter set.
Keywords: NIH Roadmap, MLSCN, MLI, MLSMR, qHTS, NCGC, A350, A-350, Fluorescent Profiling.

Row | Compound | max dye-equivalent concentration
1 | CN(Cc1ccco1)c1ccnc(-c2cccc(NS(C)(=O)=O)c2)n1 | inactive
2 | COc1cc(C(=O)NCCC(=O)NCc2ccc3c(c2)OCO3)cc(OC)c1OC | inconclusive: 1.5 nM
3 | CC(=O)OC1CC2(C)C(=O)CCC2C2CCc3cc(O)ccc3C12 (centres undefined) | inactive
4 | CC[C@](C)(CN(C)C)OC(=O)c1ccccc1 | inactive
5 | O=c1c(-c2cccs2)nc2cnc(Oc3ccccc3)nc2n1C1CC1 | active: 35 nM
6 | O=c1c2c3c(sc2n2cnnc2n1-c1ccccc1)N(Cc1ccccc1)CCC3 | active: 110 nM
7 | O=C(O)c1ccc(NS(=O)(=O)c2cc(Cl)ccc2Cl)cc1O | inactive
8 | COC(=O)c1[nH]c2ccc(C)cc2c1NS(=O)(=O)c1ccc(F)cc1 | inconclusive: 2.1 nM
9 | O=C1CC(N2CCC(c3nc4ccccc4[nH]3)CC2)C(=O)N1Cc1ccccc1 (centres undefined) | inconclusive: 9.2 nM
10 | Cn1cccc1C(=O)N1CCC2(CC1)CN(c1cccc(-c3ccccc3)c1)C2 | inactive
11 | Cc1cccc(Cn2c(=O)c3c(nc4n3CCCN4Cc3ccccc3)n(C)c2=O)c1 | inconclusive: 8.4 nM
12 | Cc1cccc(-n2c(N)cc(=O)nc2SCC(=O)NC2CCCCC2)c1 | inconclusive: 1.4 nM
13 | O=C(O)C1C2C=CC(O2)C1C(=O)Nc1ccc(S(=O)(=O)Nc2ccccc2)cc1 (centres undefined) | inconclusive: 1.2 nM
14 | O=P(COCCO)(c1ccccc1)c1ccccc1 | inconclusive: 3.9 nM
15 | CC(C)NC[C@@H](O)COc1ccc(COCCOC(C)C)cc1 | inactive
16 | Cc1nnc(SCc2cnc(-c3ccc(C(C)C)cc3)s2)n1C | inactive
17 | CC1CCC(NC(=O)Cn2c(=O)[nH]c3ccsc3c2=O)CC1 (centres undefined) | inconclusive: 1.9 nM
18 | O=C1CC(C(=O)Nc2ccc(O)c(C(=O)O)c2)C(c2ccccc2)O1 (centres undefined) | inconclusive: 3.7 nM
19 | Cc1ccc(S(=O)(=O)C(C#N)c2nc3ccccc3nc2N2CCC(C)CC2)cc1 (centres undefined) | active: 22 nM
20 | O=C(O)CCn1ccnc1-c1ccccc1 | inconclusive: 2.6 nM
21 | Cc1cc2c(N=O)c(NO)ccc2[nH]1 | inactive
22 | CCN(CC)S(=O)(=O)c1cccc2cc(C(=O)O)c(O)cc12 | active: 38 nM
23 | COc1ccc(/C=N/n2cncn2)cc1COc1ccc(NC(C)=O)cc1 | inconclusive: 4.2 nM
24 | Cc1cccc(C(=O)NC2CCN(CC(=O)N3CCOCC3)CC2)c1 | inconclusive: 1.2 nM

Rewritten tab-delimited: part of the list above
Row	Compound	max dye-equivalent concentration
20	O=C(O)CCn1ccnc1-c1ccccc1	inconclusive: 2.6 nM
21	Cc1cc2c(N=O)c(NO)ccc2[nH]1	inactive
22	CCN(CC)S(=O)(=O)c1cccc2cc(C(=O)O)c(O)cc12	active: 38 nM
23	COc1ccc(/C=N/n2cncn2)cc1COc1ccc(NC(C)=O)cc1	inconclusive: 4.2 nM

Next part:

Row | Compound | max dye-equivalent concentration
25 | CCOc1ccc(-c2nnc3sc(COc4ccc(C)cc4)nn23)cc1 | inconclusive: 1.3 nM
26 | [O-][N+]1(CC[N+]2([O-])CCCCC2)CCCCC1 | inactive
27 | CC(C)C(c1nnnn1Cc1ccccc1)N1CCN(Cc2ccco2)CC1 (centres undefined) | inconclusive: 2.5 nM
28 | CCOCCCNC(=O)c1cn(C)c(=O)c2cc(OC)c(OC)cc12 | inactive
29 | Cc1ccc(NC(=O)CSCC(=O)Nc2ncc3c(n2)CC(c2ccco2)CC3=O)cc1 (centres undefined) | inactive
30 | CN(C)c1ccc(O)c2c1C[C@H]1C[C@H]3[C@@H](N(C)C)C(=O)C(C(N)=O)=C(O)[C@]3(O)C(=O)C1=C2O | inactive
31 | CCOC(=O)CC(=O)CSc1ccc2nnc(-c3ccc(F)cc3)n2n1 | inconclusive: 3.7 nM
32 | COC(=O)C(C(=O)OC)N1C(=O)CCC1=O | inactive
33 | CN(C)Cc1ccccc1-c1ccc2ncnc(N3CCOCC3)c2c1 | inactive
34 | Cc1cc2ccccc2c(=O)n1CC(=O)NCC(=O)N1CCCC1 | inconclusive: 1.6 nM
35 | C=CCc1cccc(C2Nc3ccccc3C(=O)N2O)c1O (centres undefined) | inconclusive: 2.4 nM
36 | CCOc1ccc2cc(C#N)c(SCC(=O)N3CCOCC3)nc2c1 | active: 140 nM
37 | O=C(Oc1ccc2c(c1)CCC2)N1CCOCC1 | inactive
38 | CCN1C(=O)CC(N2CCC(Nc3ccc(F)cc3)CC2)C1=O (centres undefined) | inconclusive: 1.7 nM
39 | O=C(CSc1nnc(-c2cccnc2)o1)c1cc2ccccc2oc1=O | inconclusive: 5.9 nM
40 | C=CCn1c(N)cc(=O)nc1SCC(=O)NC(C)c1ccccc1 (centres undefined) | inconclusive: 1.3 nM
41 | c1ccc(-c2csc3ncnc(NCCN4CCOCC4)c23)cc1 | inactive
42 | COc1cc(OC)cc(C(=O)OCc2cc3ccccc3[nH]c2=O)c1 | inactive
43 | Cc1ncc([N+](=O)[O-])n1CCO | inconclusive: 2.7 nM
44 | Oc1ccc(CNc2ccc(F)cc2)c2cccnc12 | active: 15 nM
45 | CCOc1ccccc1NC(=O)CSc1nnc(-c2cnccn2)n1CC | inconclusive: 1.7 nM
46 | O=C(O)[C@@H]1CCCN1Cc1c[nH]c2ccccc12 | inactive
47 | CN(C(=O)c1ccno1)c1nnc(-c2ccccn2)s1 | active: 16 nM
48 | CCN(CC)CC#CCOC(=O)C(O)(c1ccccc1)C1CCCCC1 (centres undefined) | inconclusive: 9.2 nM

Row | Compound | max dye-equivalent concentration
49 | CCOC(=O)N1CCN(C(=O)COc2ccc3c(c2)C(=O)CC2(CCN(C(C)=O)CC2)O3)CC1 | active: 1500 nM
50 | COCCn1c(=O)c(-c2ccccc2)nc2cnc(Oc3ccccc3)nc21 | inconclusive: 2.7 nM
51 | Cc1ccc(-c2c3c(=O)n(C)c(=O)n(C)c3cn2CCCN2CCOCC2)cc1 | inconclusive: 3.8 nM
52 | COc1cc2c(cc1O)[C@@H](c1cc(O)c(O)c(OC)c1)[C@@](O)(C(=O)O)[C@@H](CO)[C@@H]2O | inconclusive: 3.6 nM
53 | Cc1ccc(Cl)cc1N(CC(=O)NC1CCCCC1)S(C)(=O)=O | inactive
54 | O=C(CN1CCc2[nH]c3ccccc3c2C1)N1CCCCC1 | active: 89 nM
55 | COc1ccc2oc(=O)c(C(=O)N3CCc4ccccc43)cc2c1 | inconclusive: 6.9 nM
56 | COC(=O)c1ccccc1NS(=O)(=O)c1ccc(O)c(C(=O)O)c1 | inconclusive: 3.1 nM
57 | CC1=CC(C)(C)N2C(=O)C3(SCC(=O)N3c3ccc(O)cc3)c3cc(C)cc1c32 (centres undefined) | inactive
58 | C=CCn1c(=O)/c(=C\c2ccsc2)s/c1=C(/C#N)C(=O)NCCN1CCOCC1 | inconclusive: 3 nM
59 | Cc1ccc(S(=O)(=O)Nc2ccccc2C(N)=O)cc1 | inconclusive: 9.5 nM
60 | COc1cc(-c2c(C#N)c(N)nc3c2CCCC3)cc(OC)c1OC | active: 12 nM
61 | CN(C)CCCNc1c2c(c(C#N)c3nc4ccccc4n13)CCC2 | active: 94 nM
62 | CCc1ccc(OCc2nnc(SCC(=O)NCc3ccco3)o2)cc1 | inactive
63 | Cc1ccc2cc(C)c(SCC#N)nc2c1 | active: 13 nM
64 | O=C(c1ccccn1)N(Cc1cc2ccccc2[nH]c1=O)C1CCCCC1 | inactive
65 | COc1cccc(-c2cc(C(=O)Nc3c(C)nn(Cc4ccccc4C)c3C)no2)c1 | inconclusive: 5 nM
66 | NC(=O)C(Cc1ccccc1)NS(=O)(=O)c1ccc(N2CCCC2=O)cc1 (centres undefined) | inconclusive: 1.6 nM
67 | CCC(C)NC(=O)c1n[nH]c(=O)c2ccccc12 (centres undefined) | inconclusive: 5.4 nM
68 | Cc1nn(C)c(C)c1NC(=O)CN1CCC(O)(c2ccc3c(c2)OCO3)CC1 | inactive
69 | COc1ccc(C)cc1NC(=O)CCC(=O)Nc1ccc2nc(N3CCN(C)CC3)cc(C)c2c1 | active: 190 nM
70 | Cc1ccc(S(=O)(=O)NCCNC(=O)c2ccccc2)cc1 | inconclusive: 5.4 nM
71 | Cc1nc(NS(=O)(=O)c2cccs2)c2c3c(sc2n1)CCC3 | inconclusive: 3.5 nM
72 | Cn1c(=S)c2[nH]c(SCc3cccnc3)nc2n(C)c1=O | inconclusive: 5.9 nM

Another view of part of the listing above:
CCOC(=O)N1CCN(C(=O)COc2ccc3c(c2)C(=O)CC2(CCN(C(C)=O)CC2)O3)CC1
  max dye-equivalent concentration: active: 1500 nM
COCCn1c(=O)c(-c2ccccc2)nc2cnc(Oc3ccccc3)nc21
  max dye-equivalent concentration: inconclusive: 2.7 nM

Carrying on:

Row | Compound | max dye-equivalent concentration
73 | CCSc1cc(C2C(C#N)=C(N)OC(C)=C2C(=O)OC)c(C)o1 (centres undefined) | inconclusive: 2.9 nM
74 | CC(C)c1ccc(C2CC(=O)N3CN(Cc4ccco4)CSC3=C2C#N)cc1 (centres undefined) | inconclusive: 3.6 nM
75 | Cc1ccccc1-c1nc2cc(N)ccc2o1 | inconclusive: 5.1 nM
76 | Clc1ccc2nc(N3CCCCC3)sc2c1 | inconclusive: 2.3 nM
77 | O=c1cc(NCc2ccccc2)nc2n1CCCS2 | inactive
78 | c1ccc(-c2nnc(CN3CCCc4ccccc43)o2)cc1 | inconclusive: 5.9 nM
79 | CCCc1nc2sc3ccccc3c(=O)c2c(=O)n1Cc1ccco1 | inconclusive: 1.1 nM
80 | O=c1cc(CN2CCN(c3ccc(F)cc3)CC2)nc2sccn12 | inconclusive: 3.6 nM
81 | CC(=O)c1ccc(N2CCN(C(=O)c3cc(C)on3)CC2)cc1 | inconclusive: 4.6 nM
82 | CS(=O)(=O)N1CCC2(CCN(c3cccc(-c4ccccc4)c3)CC2)CC1 | inactive
83 | CCOC(=O)c1c(N)sc2c1CCC1C(=O)N(C3CCCCC3)C(=O)C21 (centres undefined) | inconclusive: 6.6 nM
84 | CC(C)CCNc1nc2c(c(=O)n(Cc3cccc(F)c3)c(=O)n2C)n1C | inactive
85 | N#Cc1cn(CC(=O)N2CCCC2)c2ccccc12 | inconclusive: 1.8 nM
86 | C/C(=N\O)c1cccc[n+]1Cc1ccccc1 | inactive
87 | CSC(N)=NCCC[C@@H](N)C(=O)O | inconclusive: 6.6 nM
88 | Cc1csc(NC(=O)NC2(C(F)(F)F)Oc3ccccc3O2)n1 | active: 100 nM
89 | CN(C)c1ncnc2ccc(-c3cccc(C#N)c3)cc12 | active: 13 nM
90 | COc1ccccc1-c1nc(NCCNC(C)=O)c2ccccc2n1 | inactive
91 | CCOC(=O)c1c(-c2ccc(OC)cc2)nc2nonc2c1N | active: 18 nM
92 | COc1ccc(C2CC(C(F)(F)F)n3nc(CO)c(Cl)c3N2)cc1OC (centres undefined) | inconclusive: 1.6 nM
93 | Cc1nc2cnc(OCc3ccccc3)nc2n(C)c1=O | inactive
94 | O=C1OCCN1/N=C\c1ccc([N+](=O)[O-])o1 | inconclusive: 6.4 nM
